Values quoted from earlier work in patent US20210214758A1, “METHODS AND TOOLS FOR DETERMINING CLONAL RELATEDNESS AND PREDICTING CLONAL TRAITS” (priority 2018, published 2021).
For at least one compound, name, drawing or mass did not settle the structure.

Test system: Klebsiella isolates
Conditions: known; cited from earlier work

Q: For `C[C@@H](O)[C@H]1C(=O)N2C(C(=O)O)=C(SCCN=CN)C[C@H]12` [IMI, imipenem], which “resistance or sensitivity of almost all Klebsiella isolates” value is on record?
A: sensitive
